Source: patent US20220401524A1
No constants are given. Whether binding was seen depends on the method and setting. Some entries that bind do so weakly or less than the wild type.

Sequences of proteins named here, by UniProt entry; tags and fusion partners are left off. A change or cut given only in a name is not applied to a line headed by its entry.
UniProt P02745: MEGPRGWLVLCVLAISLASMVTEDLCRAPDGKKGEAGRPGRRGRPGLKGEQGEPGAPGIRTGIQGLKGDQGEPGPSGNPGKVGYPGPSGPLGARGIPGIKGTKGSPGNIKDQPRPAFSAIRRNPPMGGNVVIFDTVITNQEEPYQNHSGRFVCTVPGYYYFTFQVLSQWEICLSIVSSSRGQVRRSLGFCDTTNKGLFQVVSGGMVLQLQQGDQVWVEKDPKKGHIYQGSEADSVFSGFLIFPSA
UniProt P04275: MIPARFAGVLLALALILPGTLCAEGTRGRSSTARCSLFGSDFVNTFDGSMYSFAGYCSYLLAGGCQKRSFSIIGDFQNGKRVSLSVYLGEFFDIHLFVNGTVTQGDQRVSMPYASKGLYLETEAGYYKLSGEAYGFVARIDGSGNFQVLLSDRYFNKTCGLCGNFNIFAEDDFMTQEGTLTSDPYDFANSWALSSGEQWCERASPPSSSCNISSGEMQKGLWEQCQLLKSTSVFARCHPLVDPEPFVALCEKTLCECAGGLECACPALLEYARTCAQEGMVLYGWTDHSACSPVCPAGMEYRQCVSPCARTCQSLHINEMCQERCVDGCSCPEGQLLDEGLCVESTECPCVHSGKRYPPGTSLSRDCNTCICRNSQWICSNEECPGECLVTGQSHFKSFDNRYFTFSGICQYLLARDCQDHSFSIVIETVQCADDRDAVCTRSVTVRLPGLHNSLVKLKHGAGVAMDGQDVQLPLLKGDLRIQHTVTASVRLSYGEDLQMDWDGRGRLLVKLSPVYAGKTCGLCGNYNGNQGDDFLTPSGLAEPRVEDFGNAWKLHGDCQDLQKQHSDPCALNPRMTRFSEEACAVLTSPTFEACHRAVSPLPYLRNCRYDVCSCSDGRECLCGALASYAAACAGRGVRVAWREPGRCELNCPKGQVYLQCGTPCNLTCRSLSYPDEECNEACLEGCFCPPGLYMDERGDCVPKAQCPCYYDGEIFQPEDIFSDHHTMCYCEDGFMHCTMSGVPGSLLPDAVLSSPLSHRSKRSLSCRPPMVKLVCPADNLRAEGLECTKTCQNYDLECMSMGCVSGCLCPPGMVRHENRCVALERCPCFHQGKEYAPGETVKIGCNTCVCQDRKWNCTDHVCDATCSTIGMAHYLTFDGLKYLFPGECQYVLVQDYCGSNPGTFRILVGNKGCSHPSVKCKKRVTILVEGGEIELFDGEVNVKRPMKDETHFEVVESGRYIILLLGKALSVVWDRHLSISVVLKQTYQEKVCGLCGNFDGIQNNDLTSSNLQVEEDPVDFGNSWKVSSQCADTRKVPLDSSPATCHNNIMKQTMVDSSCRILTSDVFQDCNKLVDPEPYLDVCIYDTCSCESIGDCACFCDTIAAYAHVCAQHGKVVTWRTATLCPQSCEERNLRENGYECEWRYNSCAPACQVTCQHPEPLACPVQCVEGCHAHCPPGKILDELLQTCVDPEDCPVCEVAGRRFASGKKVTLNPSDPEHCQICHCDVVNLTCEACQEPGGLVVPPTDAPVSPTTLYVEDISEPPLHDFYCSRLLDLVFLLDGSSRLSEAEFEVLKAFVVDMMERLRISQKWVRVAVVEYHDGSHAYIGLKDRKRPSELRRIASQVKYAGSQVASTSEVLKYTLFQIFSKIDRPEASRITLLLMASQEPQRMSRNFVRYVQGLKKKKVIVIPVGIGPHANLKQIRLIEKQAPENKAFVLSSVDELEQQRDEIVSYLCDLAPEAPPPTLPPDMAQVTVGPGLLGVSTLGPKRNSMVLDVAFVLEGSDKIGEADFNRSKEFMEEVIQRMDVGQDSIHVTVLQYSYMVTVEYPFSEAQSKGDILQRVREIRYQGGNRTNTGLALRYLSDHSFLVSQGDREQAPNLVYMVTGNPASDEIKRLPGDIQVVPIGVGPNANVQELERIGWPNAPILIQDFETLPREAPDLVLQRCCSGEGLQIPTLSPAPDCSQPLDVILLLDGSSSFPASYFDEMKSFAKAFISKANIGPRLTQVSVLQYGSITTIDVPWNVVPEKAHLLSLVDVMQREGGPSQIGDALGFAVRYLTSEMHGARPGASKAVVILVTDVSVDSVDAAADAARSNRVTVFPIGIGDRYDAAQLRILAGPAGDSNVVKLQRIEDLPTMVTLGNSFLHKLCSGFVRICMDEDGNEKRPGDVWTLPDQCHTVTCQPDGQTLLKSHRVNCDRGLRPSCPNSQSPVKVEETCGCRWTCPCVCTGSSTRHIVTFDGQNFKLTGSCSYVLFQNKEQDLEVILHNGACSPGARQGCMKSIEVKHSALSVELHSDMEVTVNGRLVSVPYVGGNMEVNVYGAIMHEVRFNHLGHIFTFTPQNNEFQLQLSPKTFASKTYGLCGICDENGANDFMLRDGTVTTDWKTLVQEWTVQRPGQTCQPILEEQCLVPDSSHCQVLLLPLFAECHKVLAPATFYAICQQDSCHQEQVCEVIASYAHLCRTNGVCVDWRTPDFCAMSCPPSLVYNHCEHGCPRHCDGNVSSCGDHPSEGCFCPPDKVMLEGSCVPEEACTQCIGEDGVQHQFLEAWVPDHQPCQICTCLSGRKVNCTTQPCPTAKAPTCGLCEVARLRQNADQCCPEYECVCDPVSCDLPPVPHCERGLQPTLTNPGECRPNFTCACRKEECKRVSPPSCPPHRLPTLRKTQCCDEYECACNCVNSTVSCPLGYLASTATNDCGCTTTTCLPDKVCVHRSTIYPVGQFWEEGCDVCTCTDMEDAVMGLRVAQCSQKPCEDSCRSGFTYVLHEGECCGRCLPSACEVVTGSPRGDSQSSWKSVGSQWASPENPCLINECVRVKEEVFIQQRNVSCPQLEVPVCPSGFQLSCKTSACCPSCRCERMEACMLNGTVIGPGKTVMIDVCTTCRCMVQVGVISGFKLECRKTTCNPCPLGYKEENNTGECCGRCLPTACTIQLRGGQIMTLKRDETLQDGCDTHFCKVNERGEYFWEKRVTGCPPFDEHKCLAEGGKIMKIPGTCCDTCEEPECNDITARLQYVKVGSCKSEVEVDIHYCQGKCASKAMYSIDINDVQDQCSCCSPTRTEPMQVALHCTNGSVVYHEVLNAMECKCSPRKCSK

Assays:
complement C1q (human) [1] = target: complement C1q (human) (UniProt P02745); assay: cholesterol crystals coated with C1q
complement C1q (human) [2] = target: complement C1q (human) (UniProt P02745); assay: CC-C1q-vWF complexes, flow cytometry
complement C1q (human) [3] = target: complement C1q (human) (UniProt P02745); assay: summary of the binding experiments of Example 1
complement C1q (human) [4] = target: complement C1q (human) (UniProt P02745); assay: rvWF added to surfaces coated with C1q, static and flow
complement C1q (human) [5] = target: complement C1q (human) (UniProt P02745); assay: vWF on surface-bound C1q, static and under shear stress
complement C1q (human) [6] = target: complement C1q (human) (UniProt P02745); assay: discussion of Example 2, cholesterol crystals coated with C1q
complement C1q (human) [7] = target: complement C1q (human) (UniProt P02745); assay: flow cytometry on apoptotic microparticles incubated with C1q and vWF
complement C1q (human) [8] = target: complement C1q (human) (UniProt P02745); assay: flow cytometry and microscopy on cholesterol crystals coated with C1q
complement C1q (human) [9] = target: complement C1q (human) (UniProt P02745); assay: flow cytometry, confocal microscopy and ImageStreamX, C1q immobilized on cholesterol crystals
complement C1q (human) [10] = target: complement C1q (human) (UniProt P02745); assay: flow cytometry, confocal microscopy and imaging flow cytometry on cholesterol crystals coated with C1q

Measured: binding

recombinant von Willebrand factor (from UniProt P04275 764-2813) (ligand)
binds: all assays above
